# PubChem BioAssay (NCATS)
# Where “and” joins values, the source holds several entries; their conditions need not be identical. Equal values may be shown once. This is one part of the list. Further columns of the screen follow, without active or inactive calls. For some assays here: Most of these compounds were active or inconclusive in the main read-out, so they are no random draw. For some assays here: The note in brackets gives the kind of curve behind each potency; many fits are weak.
# Key:
# [1] = qHTS Assay for Inhibitors of PDE-IV (AID 607); conditions: HEK293 ACTOne CNG channel cells, membrane potential fluorescence; measured here: parental cell counter-screen
# In short: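 ACTOne HEK293 cells carry a modified cAMP-gated CNG channel and express endogenous PDE4; plated 1000 cells/well, compounds up to 22.9 uM final. Membrane-potential dye fluorescence (ex 535/em 590) was read; parental cells received 10 uM forskolin + 100 uM RO 20-1724.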
# [2] = Validation of Assay for Modulators of Lamin A Splicing (AID 1459); conditions: Lamin A splicing dual RFP/GFP fluorescence reporter, ratio
# In short: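 Splicing correction is reported by an EGFP-containing lamin A minigene in stably transfected S3 HeLa cells, while DsRed2 controls for viability and nonspecific signal. Cells are exposed to compounds for 48 hrs before the GFP over RFP ratio is taken.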
# [3] = qHTS Assay for Lipid Storage Modulators (AID 1519); conditions: Drosophila S3 cells, BODIPY lipid droplet/cell ratio, laser cytometry, cells loaded with oleic acid
# In short: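 Cells seeded at 5,000 per well were treated with compounds over a concentration series and loaded with oleic acid (400 uM, as added). Lipid droplet fluorescence (488 nm excitation, 500-530 nm channel) was read by laser-scanning cytometry and normalized to 20 uM Triacsin C.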
# [4] = qHTS Assay for Modulators of Human Peripheral Myelin Protein 22 (PMP22) Expression/Activity (AID 1967); conditions: Cell-based PMP22 reporter, dual-color luciferase ratio
# In short: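 Quantitative HTS in a mouse Schwann cell line expressing dual click beetle luciferases: Pmp22 promoter (green) and control EF-alpha promoter (red). After 24h treatment, corrected green/red signal ratio gave %Activity relative to untreated cells.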
# [5] = qHTS Validation Assay to Find Inhibitors of Chronic Active B-Cell Receptor Signaling (AID 485345); conditions: ABC-DLBCL cells, chronic BCR signaling reporter
# In short: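 Read-out: ratio of filter-corrected green (IkappaBalpha fusion) to red (native) luciferase signal in doxycycline-induced TMD8 cells after 4 h at 37C. Titration spanned 46 uM–3 nM; Data were normalised to basal cells and 10 uM MG-132 wells.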
# [6] = Nrf2 qHTS screen for inhibitors: Validation (AID 493153); conditions: A549 ARE-Fluc reporter, 18-24 h; AC50: CellTiter-Fluor fluorescence read, measured here: cytotoxicity CellTiter-Fluor AC50; viability change: measured here: cytotoxicity max response
# In short: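 A549 cells carrying ARE-firefly luciferase reporter, 5000 cells/well in 5% FBS OPTI-MEM, treated with compound over a concentration series for 18-24 h at 37 C. Luciferase luminescence gave Nrf2 activity; CellTiter-Fluor fluorescence gave viability.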
# [7] = qHTS for identification of novel therapeutic agents for treatment of microphthalmiaassociated transcription factor (MiT) renal cell carcinoma (RCC) (AID 1963991); conditions: CellTiter-Glo, 48 h; for z-score: stronger effect = lower value
# In short: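 Three TFE3-fusion RCC cell lines (UOK109, UOK124, UOK145), 500 cells/well, were exposed to the 1912-compound MIPE 4.0 library for 48 hours at 37 C. Viability was read by CellTiter-Glo luminescence, normalised to DMSO (100%) and empty wells (0%), with 11-concentration curve fits.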
# [8] = qHTS assay for small molecule antagonists of androgen receptor signaling (AID 588516); conditions: AR-UAS-bla HEK293, beta-lactamase ratio, antagonist mode, 16 h; measured here: W460 blue channel fit
# In short: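 Cells were plated and incubated 5 h, compounds added in titration, then R1881 (10 nM final) as agonist. After 16 h at 37 C, CCF4 substrate was loaded for 2 h at room temperature and fluorescence measured.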
# [9] = qHTS assay for small molecule antagonists of peroxisome proliferator-activated receptor gamma signaling (AID 588537); conditions: HEK293 PPARg-UAS-bla, beta-lactamase ratio, antagonist mode; measured here: W460 blue channel
# In short: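 Antagonist mode, beta-lactamase reporter in HEK293; charcoal/dextran FBS 1%; 3000 cells/well, 37 C 6-6.5 h; cpd titration + rosiglitazone 50 nM final, 16 h 37 C; CCF4, 2 h RT; 460/530 nm; Hill fit → IC50, efficacy.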
# [10] = qHTS assay for small molecule agonists of retinoid X receptor alpha signaling (AID 588544); conditions: HEK293T RXRa-UAS-bla, beta-lactamase reporter, 18 h; 530 nm emission
# [11] = qHTS assay for small molecule antagonists of retinoid X receptor alpha signaling (AID 588546); conditions: HEK293T RXRa-UAS-bla, beta-lactamase ratio, antagonist mode; measured here: W530 green channel, cytotoxicity proxy;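 note: cells stimulated with 9-cis-retinoic acid as agonist; % is set by controls: 0 for no effect and ±100 for the full control effect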
# In short: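 Beta-lactamase reporter inhibition, read as CCF4 fluorescence ratio (ex 405, em 460/530 nm) after 2 h at RT. HEK293T UAS-bla cells, 2500/well, were stimulated with 9-cis-RA at 500 or 100 nM final alongside test compound for 18 h at 37 C.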
# [12] = S16 Schwann cell PMP22 intronic element beta-lactamase assay (AID 624044); conditions: S16 rat Schwann cells, PMP22 element beta-lactamase FRET, 24 h; measured here: 460 nm blue channel
# In short: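 Rat S16 Schwann cells with beta-Lac driven by a PMP22 intronic element, compound-treated 24 h at 37 °C. LiveBLAzer FRET B/G read: 460 nm normalized to potassium clavulanate vs DMSO; 535 nm FRET as viability; concentration-effect curves classified.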
# [13] = qHTS drug screen for cell cycle checkpoint inhibitors in PARPi-resistant BRCA-mutant ovarian cancer cell lines. (AID 1963452); conditions: PEO1/OlaR viability, CellTiter-Glo luminescence, 96 h; measured here: PEO1 parental viability
# In short: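 PEO1, PEO4 and PEO1/OlaR ovarian cancer cells, 600 per well, exposed 96 h at 37C to a dilution series. Viability read by CellTiter-Glo luminescence, normalized to DMSO and empty wells; activity summarized as Z-AUC.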
# [14] = measured here: cell count channel max response
# [15] = measured here: cell number channel AC50
# [16] = measured here: lipid (BODIPY) channel AC50
# [17] = measured here: lipid channel max response
# [18] = measured here: red reporter channel AC50, EF-alpha promoter control reporter in MSC80 mouse Schwann cells
# [19] = TFE3-RCC UOK109 viability, measured here: UOK109 Z-AUC
# [20] = TFE3-RCC viability, measured here: UOK124 Z-AUC
# [21] = TFE3-RCC viability, measured here: UOK124 cell viability
# [22] = TFE3-RCC viability, measured here: UOK145 Z-AUC
# [23] = TFE3-RCC viability, measured here: UOK145 cell viability
smiles,measurement,setting,value
O=Nc1c(-c2c(O)[nH]c3ccccc23)[nH]c2ccccc12,AC50,[1],"10 µM [falling, partial curve, poor fit] and 10 µM [falling, partial curve]"
same,AC50,[2]; measured here: GFP channel,"10 µM [rising, partial curve]"
same,AC50,[2]; measured here: RFP channel,"10 µM [rising, partial curve]"
same,max response,[3]; [14],-90.1% and -77.3%
same,AC50,[3]; [15],"20 µM [falling, partial curve, poor fit] and 22.4 µM [falling, partial curve, poor fit]"
same,AC50,[3]; [16],"22.4 µM [falling, full curve, poor fit]"
same,max response,[3]; [17],-101% and -89.6%
same,AC50,"[4]; measured here: green reporter channel AC50, mouse Pmp22 promoter in mouse Schwann cells","47.8 µM [falling, partial curve]"
same,AC50,[4]; [18],"37.9 µM [falling, partial curve, poor fit]"
same,AC50,[5]; measured here: CBG/CBR ratio read-out,"4.11 µM [falling, single point]"
same,AC50,[5]; measured here: CBR control luciferase (viability counter),"18.4 µM [falling, single point]"
same,AC50,[6],"23.1 µM [falling, single point]"
same,viability change,[6],-46%
Cc1cn[nH]c1,AC50,[2]; measured here: GFP channel,"35.5 µM [falling, single point]"
same,AC50,[2]; measured here: RFP channel,"35.5 µM [falling, single point]"
same,max response,[3]; [14],-42.7%
same,AC50,[3]; [16],"44.7 µM [falling, single point]"
same,max response,[3]; [17],-39.6%
same,AC50,[4]; [18],"37.9 µM [rising, single point]"
same,z-score,[7]; [19],0.137
same,z-score,[7]; [20],0.354
same,AC50,[7]; [21],"0.372 µM [falling, full curve]"
same,z-score,[7]; [22],-0.17
same,AC50,[7]; [23],"0.0935 µM [falling, full curve]"
CN(Cc1cnc2nc(N)nc(N)c2n1)c1ccc(C(=O)N[C@@H](CCC(=O)O)C(=O)O)cc1,AC50,[2]; measured here: GFP channel,"0.178 µM [falling, full curve]"
same,AC50,[2]; measured here: RFP channel,"0.178 µM [falling, full curve, poor fit]"
same,max response,[3]; [14],30.2%
same,AC50,[3]; [15],"5.62 µM [rising, partial curve, poor fit]"
same,AC50,[3]; [16],"28.2 µM [rising, partial curve, poor fit]"
same,max response,[3]; [17],40.2%
same,AC50,[8],"35.5 µM [rising, partial curve, poor fit]"
same,AC50,[9],"2 µM [falling, full curve, poor fit]"
same,max response,[10],26.9%
same,max response,[11],29.9%
same,AC50,[12],"0.112 µM [falling, full curve, poor fit]"
same,AC50,[13],"0.49 µM [rising, full curve, poor fit]"
same,z-score,[7]; [19],-0.0318
same,z-score,[7]; [20],-2.26
same,AC50,[7]; [21],"0.0332 µM [falling, full curve]"
same,z-score,[7]; [22],-2.1
same,AC50,[7]; [23],"0.0743 µM [falling, full curve]"

# 2 consecutive entries from above:
smiles,measurement,setting,value
Cc1cn[nH]c1,max response,[3]; [14],-42.7%
same,AC50,[3]; [16],"44.7 µM [falling, single point]"
